Some entries share one result that the patent states for a list of compounds. Where no end group is shown, it is not given here.
Experiment: Stability of the peptides in aqueous solution and as dry solids (HPLC purity)
Assay type: physicochemical
Details: aqueous solution at 4° C.

Sequence	stable in aqueous solution, no change in purity as measured by HPLC
KEFLHPSKVDLPR [SorC13, KEFLHPSKVDLPR]	at least 3 weeks
EGKLSSNDTEGGLCKEFLHPSKVDLPR [SorC27]	at least 3 weeks
